Measurements reported in PubChem BioAssay AID1259405 (NCATS, 2018)
The whole screen tested about 50,000 reagents; shown is a part drawn at random. In the full data, about 4,000 (8%) are marked active. 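Mouse siRNA library applied to hamster cells; one well for each siRNA.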 Unmarked entries are inactive. The numbers tell different reagents against one gene apart.

- Assay: 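Knock-downs that lift recombinant protein yield in hamster ovary cells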 (primary screen)
- System: Chinese hamster CHO-K1 ovary cells with stable secreted eGFP expression
- Reagent: single siRNA against mouse genes, 0.8 pmol siRNA per well (2 µl of 400 nM stock)
- Timing: 3 days
- Measurement: 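Percent of the per-plate non-targeting control median for intracellular GFP per well by laser scanning cytometry and for cell viability by ATP luminescence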
- Direction: GFP, % of control: higher = more GFP per well, higher productivity; viability (ATP), % of control: higher = more viable cells (more ATP)
- Call rule: 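a knock-down is called active if GFP reaches 120% or more of non-targeting control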

target	reagent no.	GFP, % of control	viability (ATP), % of control
Arhgef28 (GeneID 110596)	1	62	69.6
Arhgef28 (GeneID 110596)	2	74.2	96.3
Arhgef28 (GeneID 110596)	3	22.1	51.6
Creb5 (GeneID 231991)	1	97.2	84.4
Creb5 (GeneID 231991)	2	101	35
Creb5 (GeneID 231991)	3	108	114
Hbb-b2 (GeneID 15130)	1	131 (active)	117
Hbb-b2 (GeneID 15130)	2	110	83.4
Hbb-b2 (GeneID 15130)	3	77.6	62.7
Hmgb2 (GeneID 97165)	1	78	85.3
Hmgb2 (GeneID 97165)	2	58.8	66.1
Hmgb2 (GeneID 97165)	3	57.7	109
Pik3r6 (GeneID 104709)	1	41.1	47.7
Pik3r6 (GeneID 104709)	2	57.1	75.8
Pik3r6 (GeneID 104709)	3	66.1	93.6
Hltf (GeneID 20585)	1	96.8	95.3
Hltf (GeneID 20585)	2	73	84.3
Hltf (GeneID 20585)	3	77.9	67.2
Grap (GeneID 71520)	1	49.7	67.3
Grap (GeneID 71520)	2	116	72.9
Grap (GeneID 71520)	3	63.6	45.1
Fkbp9 (GeneID 27055)	1	54.2	66.1
Fkbp9 (GeneID 27055)	2	151 (active)	94.9
Fkbp9 (GeneID 27055)	3	79.3	63.9
4933411G06Rik (GeneID 71090)	1	78.7	87.7
4933411G06Rik (GeneID 71090)	2	92.3	82.9
4933411G06Rik (GeneID 71090)	3	110	127
Gfra4 (GeneID 14588)	1	168 (active)	90.2
Gfra4 (GeneID 14588)	2	82.9	61.5
Nsmaf (GeneID 18201)	1	51	51.8
Nsmaf (GeneID 18201)	2	105	81.5
Nsmaf (GeneID 18201)	3	76.7	74.7
Ankrd12 (GeneID 106585)	1	78.1	59.8
Ankrd12 (GeneID 106585)	2	73.8	57.8
Ankrd12 (GeneID 106585)	3	97.6	89.7
Emd (GeneID 13726)	1	64.6	77.3
Emd (GeneID 13726)	2	67.3	47.2
Emd (GeneID 13726)	3	118	91.6

Next part; the last 9 above are carried over.
target	reagent no.	GFP, % of control	viability (ATP), % of control
Nsmaf (GeneID 18201)	1	51	51.8
Nsmaf (GeneID 18201)	2	105	81.5
Nsmaf (GeneID 18201)	3	76.7	74.7
Ankrd12 (GeneID 106585)	1	78.1	59.8
Ankrd12 (GeneID 106585)	2	73.8	57.8
Ankrd12 (GeneID 106585)	3	97.6	89.7
Emd (GeneID 13726)	1	64.6	77.3
Emd (GeneID 13726)	2	67.3	47.2
Emd (GeneID 13726)	3	118	91.6
Aip (GeneID 11632)	1	85.4	62.3
Aip (GeneID 11632)	2	127 (active)	91
Aip (GeneID 11632)	3	71.2	124
Rab4b (GeneID 19342)	1	49.8	70
Rab4b (GeneID 19342)	2	65	75.1
Rab4b (GeneID 19342)	3	130 (active)	103
Mixl1 (GeneID 27217)	1	65.9	88.7
Mixl1 (GeneID 27217)	2	86.9	65.6
Mixl1 (GeneID 27217)	3	130 (active)	89.1
Dnal1 (GeneID 105000)	1	111	82.6
Dnal1 (GeneID 105000)	2	77.4	80.8
Dnal1 (GeneID 105000)	3	77.4	70.3
Hgsnat (GeneID 52120)	1	83.3	81.8
Hgsnat (GeneID 52120)	2	62.1	83.6
Hgsnat (GeneID 52120)	3	43.9	56.6
Lypd3 (GeneID 72434)	1	75.3	50.9
Lypd3 (GeneID 72434)	2	29.5	16.6
Lypd3 (GeneID 72434)	3	65.8	60.5
Paqr9 (GeneID 75552)	1	56.4	61.4
Paqr9 (GeneID 75552)	2	73.4	78.7
Paqr9 (GeneID 75552)	3	55.9	79.7
Cpped1 (GeneID 223978)	1	93.1	98.5
Cpped1 (GeneID 223978)	2	109	78.6
Cpped1 (GeneID 223978)	3	99.1	102
Lrtm2 (GeneID 211187)	1	29.4	36.9
Lrtm2 (GeneID 211187)	2	64.9	48.9
Lrtm2 (GeneID 211187)	3	78.6	67.4
Kctd15 (GeneID 233107)	1	76.5	70.2
Kctd15 (GeneID 233107)	2	75.8	71.9
Kctd15 (GeneID 233107)	3	72	64.8
Fgf22 (GeneID 67112)	1	83	69.8
Fgf22 (GeneID 67112)	2	101	71.5
Fgf22 (GeneID 67112)	3	33.7	43.5
Prkar1a (GeneID 19084)	1	105	82.7
Prkar1a (GeneID 19084)	2	69.3	65
Coch (GeneID 12810)	1	103	64.2
Coch (GeneID 12810)	2	105	79.7
Jkampl (GeneID 66740)	1	48.7	49.5
Jkampl (GeneID 66740)	2	58	31.4
Jkampl (GeneID 66740)	3	123 (active)	129
Or2a52 (GeneID 258293)	1	67.6	98.4
Or2a52 (GeneID 258293)	2	74	79.1
Or2a52 (GeneID 258293)	3	46.8	107
Rad51d (GeneID 19364)	1	100	129
Rad51d (GeneID 19364)	2	92	72.7
Dnaja3 (GeneID 83945)	1	58	65
Dnaja3 (GeneID 83945)	2	59.2	82.1
Dnaja3 (GeneID 83945)	3	62.9	95.9
